Literature values, collected in patent US20050059682A1, “Compositions and methods for treatment of cancer” (priority 2003, published 2005).
For at least one compound, name, drawing or mass did not settle the structure.

Test system: HDAC
Settings: in vitro or in vivo for SAHA, SBHA, CBHA

## CCC(=O)CCCCC[C@@H]1NC(=O)[C@H]2CCCCN2C(=O)[C@H]([C@@H](C)CC)NC(=O)[C@H](Cc2cn(OC)c3ccccc23)NC1=O [Apicidin, apicidin]
  concentration at which HDAC is inhibited: nanomolar concentrations
